Source: PubChem BioAssay AID686943 (Drosophila RNAi Screening Center, 2013)

Screen: 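Knockdowns that increase or decrease active ERK after insulin receptor stimulation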 (primary screen)
Cells: Drosophila S2R+ haemocyte-like cells expressing YFP-tagged ERK (Rolled)
Reagent: long dsRNA against Drosophila genes
Treatment: insulin stimulation versus unstimulated cells; dose and duration not given
Measurement: 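Antibody staining for doubly phosphorylated ERK divided by ERK-YFP signal, as plate z-scores, in insulin-treated and untreated cells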
Scale: replicate 1, z-score of dpERK with insulin and replicate 2, z-score of dpERK with insulin: higher = more active ERK per ERK-YFP after insulin; replicate 1, z-score of dpERK under basal conditions: higher = more basal active ERK per ERK-YFP; replicate 1, z-score of ERK-YFP with insulin: higher = more YFP-tagged ERK signal
In all, the deposit lists about 23,000 reagents; below is an unselected part of those that have a named target and a result. 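Extra replicates exist only for a retested subset of genes; insulin dose and duration not given; both raised and lowered dpERK matter.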 Names joined by + are all predicted targets of the reagent. Not stated in the record: the amount of reagent, the time to read-out.

no.	target gene	amplicon	replicate 1, z-score of dpERK with insulin	replicate 2, z-score of dpERK with insulin	replicate 1, z-score of dpERK under basal conditions	replicate 1, z-score of ERK-YFP with insulin
1	CG5167	DRSC15728	0.69	1.45	0.46	0.09
2	asRNA:CR30267 + CG42260	DRSC03953	-0.24	-0.04	0.08	1.91
3	RanGAP	DRSC22003	0.59	-0.34	0.85	-0.84
4	boi	DRSC18425	0.58	-0.58	-0.28	0.06
5	boi	DRSC18598	0.46	-0.04	-0.26	0.37
6	lncRNA:Hsromega	DRSC22875	0.34	0.06	0.15	-0.02
7	dare	DRSC07602	-0.25	-0.05	-0.02	0.73
8	CG34181	DRSC01071	-0.26	0.72	0.11	-1.71
9	PpY-55A	DRSC07513	-1.36	-0.88	0.04	0.12
10	Gr59e	DRSC04276	0.69	0.7	0.16	0.09
11	CG10730	DRSC02102	0.17	0.1	0.19	1.62
12	RpS24	DRSC04414	-2.98	-1.62	-2.61	-2.08
13	CG13965	DRSC02307	-0.26	0.3	0.44	-0.4
14	CG31792	DRSC02604	0.22	-0.42	-0.5	-0.7
15	Sb	DRSC16851	0.03	0.39	1.18	1.16
16	GCC185	DRSC15493	0.08	0.47	1.48	0.82
17	Act87E	DRSC22578	-0.35	-0.13	0.9	0.67
18	Mob2	DRSC09117	-0.58	0.64	0.33	1.43
19	Mob2	DRSC09119	0.82	-0.08	-0.07	0.31
20	Mob2	DRSC09856	0.74	1.84	-0.2	-1.19
21	CG30373	DRSC05081	0.55	0.22	-0.67	0.33
22	CG8607	DRSC11012	-0.53	-0.11	-0.01	0.37
23	Sf3b6	DRSC09972	1.43	1.41	11.5	-0.01
24	Spp	DRSC00328	0.69	0.04	0.04	-0.27
25	fln	DRSC11346	-0.09	0.23	-0.33	-0.18
26	Tmx3	DRSC10471	1.33	1.2	0.59	0.91
27	Rab6	DRSC03404	-0.51	-0.86	-0.31	0.39
28	Lrp4	DRSC20118	-0.21	0.43	0.01	0.47
29	CG3625	DRSC00008	-0.06	-0.32	-0.38	1.64
30	CG3625	DRSC00621	-0.25	-0.61	-0.39	-0.21
31	nbs	DRSC11373	0.66	0.54	1.88	0.84
32	fand	DRSC06967	0.7	0.54	0	-1.46
33	larp	DRSC14728	0.46	-0.17	0.19	-0.04
34	larp	DRSC16984	-0.38	-0.12	0.76	0.93
35	larp	DRSC21856	-0.09	-5.23	-0.19	1.93
36	CG14684	DRSC14907	0.61	0.56	0.57	0.27
37	srl	DRSC12340	0.38	-0.08	-0.87	-0.35
38	Grd	DRSC11178	0.43	0.46	-0.41	-0.46
39	CG31562 (retired record)	DRSC12273	-0.56	-0.97	0.46	1.61
40	CG31562 (retired record)	DRSC12274	-0.13	0.31	0.81	1.12
41	Cp18	DRSC11120	0.09	-0.33		0.57
42	CG4098	DRSC10399	-0.07	-0.19	-1.18	0.22
43	CG17168	DRSC20904	0.59	0.4	-1.25	0.22
44	asRNA:CR31084	DRSC21649	0.29	-0.04	2.04	1.23
45	Cyp6w1	DRSC04909	-0.2	0.14	0.05	-0.21
46	Cpr67Fa2	DRSC10315	0.62	0.68	0.01	0.37
47	tinc	DRSC14798	0.22	0.96	-0.74	0.04
48	tinc	DRSC14799	0.61	0.54	0.88	-0.29
49	tinc	DRSC16308	-1.88	-1.07	-0.84	0.77
50	tinc	DRSC16309	-0.17	-1.12	0.02	-0.26
51	CG3330	DRSC15477	0.57	0.71	-1.03	0.23
52	Cyp9c1	DRSC04607	-0.31	-0.92	-0.76	0.14
53	CG18540	DRSC06767	-0.28	-1.15	-0.98	0.74
54	Csgalnact	DRSC06228	0.49	0.29	-0.18	0.17
55	Acp76A	DRSC09665	-0.07	-0.72	1.28	0.08
56	Unc50	DRSC16561	0.78	0.32	0.91	0.21
57	RabX6	DRSC08223	0.46	0.92	1.51	0.06

Looked up above:
For “replicate 2, z-score of dpERK with insulin”, CG5167 [DRSC15728] reads 1.45
For “replicate 1, z-score of dpERK under basal conditions”, asRNA:CR30267 + CG42260 [DRSC03953] reads 0.08
Result of Csgalnact [DRSC06228] under “replicate 2, z-score of dpERK with insulin”: 0.29
Under “replicate 2, z-score of dpERK with insulin”, CG10730 [DRSC02102] reads 0.1
Under “replicate 2, z-score of dpERK with insulin”, Act87E [DRSC22578] has -0.13
Result for boi [DRSC18425] under “replicate 2, z-score of dpERK with insulin”: -0.58
